Test results taken from paper PMC3334623.

B1: Suds3 (protein, UniProt Q8BR65 1-328)
chain: MSAAGLLAPAPAPAAAPAAPEYYPEDEEELESAEDDERSCRGRESDEDTEDASETDLAKHDEEDYVEMKEQMYQDKLASLKRQLQQLQEGTLQEYQKRMKKLDQQYRERIRNAELFLQLETEQVERNYIKEKKAAVKEFEDKKVELKENLIAELEEKKKMIENEKLTMELTGDSMEVKPIMTRKLRRRPNDPVPIPDKRRKPAPAQLNYLLTDEQIMEDLRTLNKLKSPKRPASPSSPEHLPATPAESPAQRFEARIEDGKLYYDKRWYHKSQAIYLESKDNQKLSCVISSVGANEIWVRKTSDSTKMRIYVGQLQRGLFVIRRRSAA
B2: Sin3b, Q62141 1-1098 (protein)
chain: MAHAGSGGSAGRGFGGSRWGRSGSGGHEKLPVHVEDALTYLDQVKIRFGSDPATYNGFLEIMKEFKSQSIDTPGVIRRVSQLFHEHPDLIVGFNAFLPLGYRIDIPKNGKLNIQSPLSSQDNSHSHGDCGEDFKQMSYKEDRGQVPLESDSVEFNNAISYVNKIKTRFLDHPEIYRSFLEILHTYQKEQLHTKGRPFRGMSEEEVFTEVANLFRGQEDLLSEFGQFLPEAKRSLFTGNGSCEMNSGQKNEEKSLEHNKKRSRPSLLRPVSAPAKKKMKLRGTKDLSIAAVGKYGTLQEFSFFDKVRRVLKSQEVYENFLRCIALFNQELVSGSELLQLVSPFLGKFPELFAQFKSFLGVKELSFAPPMSDRSGDGISREIDYASCKRIGSSYRALPKTYQQPKCSGRTAICKEVLNDTWVSFPSWSEDSTFVSSKKTPYEEQLHRCEDERFELDVVLETNLATIRVLESVQKKLSRMAPEDQEKLRLDDCLGGTSEVIQRRAIHRIYGDKAPEVIESLKRNPATAVPVVLKRLKAKEEEWREAQQGFNKIWREQYEKAYLKSLDHQAVNFKQNDTKALRSKSLLNEIESVYDEHQEQHSEGRSAPSSEPHLIFVYEDRQILEDAAALISYYVKRQPAIQKEDQGTIRQLLHRFLPSLFFSQQCPGTSDDSADERDRDRDSAEPERRRPTDEKPPADASPEPPKVLDDVYSLFFANNNWYFFLRLHQTLCARLLKIYRQAQKQLLEHRREQEREQLLCEGRREKAADPAMELRLKQPSEVELEEYYPAFLDMVRSLLEGSIDPTQYEDTLREMFTIHAYIGFTMDKLVQNIARQLHHLVSDDVCLKVVELYLNEQQRGAAGGNLSSRCVRAARETSYQWKAERCMADENCFKVMFLQRRGQVIMTIELLDTEEAQTEDPVEVQHLARYVEQYVGSEGASSSSTEGFLLKPVFLQRNLKKFRRWQCEQVRAMRGEAKSSWKRLMGVESACDVDCRFRLGTHKMVFIVNSEDYMYRRGTLCRAKQVQPLVLLRHHRHFEEWHGRWLEDNVTVAAAGLVQDWLMGEEEEDMVPCKTLCETAHVHGLPVTRYRVQYSRRPASP

Assays:
Sin3a-3xFLAG (mouse) = target: T1, Sin3a-3xFLAG (mouse) (UniProt Q60520); test: affinity purification with mass spectrometry; anti-FLAG M2 resin, 4 h at 4 °C, with 13-15 mg nuclear extract of E14tg2a ES cells expressing Sin3a-3xFLAG or 3xFLAG alone; IP buffer 25 mM HEPES-KOH pH 7.6, 140 mM KCl, 10% glycerol, 0.1% Igepal CA-630; washes with 250 mM KCl; elution with 3x FLAG peptide; SDS-PAGE and LC-MS/MS; four independent pull downs
T1 sequence: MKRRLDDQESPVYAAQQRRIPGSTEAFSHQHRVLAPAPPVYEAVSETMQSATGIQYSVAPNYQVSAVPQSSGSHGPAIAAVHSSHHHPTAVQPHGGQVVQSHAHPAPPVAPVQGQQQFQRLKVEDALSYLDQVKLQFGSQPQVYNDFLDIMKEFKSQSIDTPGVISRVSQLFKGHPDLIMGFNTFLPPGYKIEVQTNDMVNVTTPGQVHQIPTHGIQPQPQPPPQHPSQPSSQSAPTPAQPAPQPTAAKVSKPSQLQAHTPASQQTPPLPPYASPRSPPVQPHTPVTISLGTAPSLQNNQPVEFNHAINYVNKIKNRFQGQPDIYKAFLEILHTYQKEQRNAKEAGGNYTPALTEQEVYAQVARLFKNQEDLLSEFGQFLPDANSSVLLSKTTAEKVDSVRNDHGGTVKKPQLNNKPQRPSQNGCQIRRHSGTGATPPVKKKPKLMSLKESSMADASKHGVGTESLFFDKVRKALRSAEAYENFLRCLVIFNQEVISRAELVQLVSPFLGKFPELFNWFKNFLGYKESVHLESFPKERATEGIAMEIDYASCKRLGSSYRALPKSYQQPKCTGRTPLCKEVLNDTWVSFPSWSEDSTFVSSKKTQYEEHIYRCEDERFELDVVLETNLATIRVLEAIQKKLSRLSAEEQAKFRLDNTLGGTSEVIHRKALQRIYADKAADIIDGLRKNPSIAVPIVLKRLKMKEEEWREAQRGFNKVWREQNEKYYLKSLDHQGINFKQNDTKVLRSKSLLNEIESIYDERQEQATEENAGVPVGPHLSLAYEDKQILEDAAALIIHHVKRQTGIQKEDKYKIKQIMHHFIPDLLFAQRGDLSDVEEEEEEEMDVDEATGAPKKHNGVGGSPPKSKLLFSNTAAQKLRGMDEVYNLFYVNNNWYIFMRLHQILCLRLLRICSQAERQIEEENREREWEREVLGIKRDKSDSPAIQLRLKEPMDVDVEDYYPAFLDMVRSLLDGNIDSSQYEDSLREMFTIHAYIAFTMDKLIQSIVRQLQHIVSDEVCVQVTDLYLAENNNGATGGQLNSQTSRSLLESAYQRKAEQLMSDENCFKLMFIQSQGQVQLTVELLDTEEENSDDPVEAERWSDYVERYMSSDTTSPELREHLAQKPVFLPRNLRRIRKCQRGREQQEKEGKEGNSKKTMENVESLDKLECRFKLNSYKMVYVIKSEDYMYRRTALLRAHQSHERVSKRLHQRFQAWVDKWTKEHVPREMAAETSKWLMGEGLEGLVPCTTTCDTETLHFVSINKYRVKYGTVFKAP

[1] = target: T2, Sin3a-3xFLAG (mouse), Q60520; test: as above; conditions: remark: other sources report otherwise
T2 chain: T1 sequence

Row | Binder | binding (Sin3a-3xFLAG (mouse)) | binding [1]
1 | B1 | binds | –
2 | B2 | – | no binding

No constants are given. Whether binding was seen depends on the method and setting. Binding seen in cells or lysates may run through a third protein. A yes stands for co-enrichment or nearness to the bait. Other partners may have been found. For some assays here: A no says only that the protein was not detected with the bait. Where a sequence is shown, tags or fusion partners need not be part of it.
